This is an account of results in PMC9221018, “Sulfonamide-Derived Dithiocarbamate Gold(I) Complexes Induce the Apoptosis of Colon Cancer Cells by the Activation of Caspase 3 and Redox Imbalance” (Biomedicines, 2022).

For the data set, the system named is differentiated Caco-2 cells. The data set can be described thus: MTT cytotoxicity assay in differentiated Caco-2 cells (healthy cell model). The class given is cell-based, human. To be noted: IC50 differentiated Caco-2 divided by IC50 undifferentiated Caco-2, 72 h. The method, then:
The human Caco-2 cell line (TC7 clone) was kindly provided by Dr. Edith Brot-Laroche (Université Pierre et Marie Curie-Paris 6, UMR S 872, Les Cordeliers, France). Human epithelial fibroblast cells (NHDF-Ad, Lonza®®, Porriño, Spain) were kindly provided by Dr. Gracia Mendoza (Aragon Health Research Institute, IIS Aragón, Spain). Caco-2 cells (passages 40–70) and fibroblasts (passages 10–30) were maintained in a humidified atmosphere of 5% CO2 at 37 °C and grown in medium following the method used by Quero et al.. The Caco-2 cells were sub-cultured in 25 cm^2 plastic flasks at a density of 1.2 × 10^4 cells/cm^2, while the fibroblasts were sub-cultured on 75 cm^2 plastic flasks at a density of 1 × 10^4 cells/cm^2. The culture medium was replaced every 2 days.
The gold complexes were diluted in dimethyl sulfoxide (DMSO) as a 10 mM stock solution, and then diluted in cell culture medium at the desired concentrations.
For the cytotoxicity screening assays, Caco-2 cells were seeded in 96-well plates at a density of 4 × 10^3 cells/well. The culture medium was replaced with medium containing the drug panel 24 h post-seeding, and the cells were incubated for 24, 48 and 72 h. […] In differentiated Caco-2 and fibroblasts, culture medium containing metal gold complexes was added 15 days post-seeding, and the cells were incubated for 72 h. The antiproliferative effect was measured using an MTT assay, as previously described by Mármol et al.. The absorbance at 540/620 nm was measured using a SPECTROstar Nano (BMG Labtech, Ortenberg, Germany). In order to determine the selectivity index (SI), the IC50 value of the differentiated Caco-2 cells was divided by IC50 value in undifferentiated Caco-2, obtaining the ratio of the normal/cancerous cells’ toxicity.
On to `O=S(=O)(NC(=S)[S][Au][PH](c1ccccc1)(c1ccccc1)c1ccccc1)c1ccccc1` [Complex 1, [Au(S2CNHSO2C6H5)(PPh3)]], for which the “Selectivity Index” value was 11.2. The value for `C#CCn1ccn(Cc2ccccc2)[c]1=[Au-].O=S(=O)(NC(=S)[S-])c1ccccc1` [Complex 9, [Au(S2CNHSO2C6H5)(IBnPropargyl)]] was 2.28; that for “[Au(S2CNHSO2-p-Me-C6H4)(IMePropargyl)] [Complex 8]” was 6.46.
